Drawing on patent publication US20250129170A1, this text covers binding for 21 molecules.

Protein sequences, listed by entry. Tags and fused reporters are not part of them. Lines headed by an entry give the natural chain unless they say otherwise; changes in a name come on top. Residues count along the entry.
UniProt P19235, residues 25-250: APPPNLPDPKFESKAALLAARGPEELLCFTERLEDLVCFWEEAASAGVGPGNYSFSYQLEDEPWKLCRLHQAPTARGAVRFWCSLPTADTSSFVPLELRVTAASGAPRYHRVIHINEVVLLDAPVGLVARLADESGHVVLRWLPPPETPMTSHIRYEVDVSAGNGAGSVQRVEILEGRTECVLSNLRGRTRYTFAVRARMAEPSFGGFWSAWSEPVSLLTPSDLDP

No constants are given. Whether binding was seen depends on the method and setting. Some binding calls cover weakened binding; strength is not graded here.

The chains are these.
B1: anti-EPOR antibody clonotype469 (antibody, V domains shown)
VH: QVQLVQSGAEVKKPGASVKVSCKASGYTFTSYDINWVRQATGQGLEWMGWMNPNSGNTGYAQKFQGRVTMTRNTSISTAYMELSSLRSEDTAVYYCARMGYSNYPFDYWGQGTLVTVSS
VL: SYELTQPPSVSVSPGQTARITCSGDALPKKYAYWYQQKSGQAPVLVIYEDSKRPSGIPERFSGSSSGTMATLTISGAQVEDEADYYCYSTDSSGNHVVFGGGTKLTVL
B2: anti-EPOR antibody clonotype517 (antibody, V domains shown)
VH: QVQLQESGPGLVKPSGTLSLTCAVSGGSISSNNWWSWVRQPPGKGLEWIGEIYHSGSTNYNPSLKSRVTISVDKSKNQFSLKLSSVTAADTAVYYCARVLNWNYGDAFDIWGQGTMVTVSS
VL: SYELTQPPSVSVSPGQTARITCSGDALPKKYAYWYQQKSGQAPVLVIYEDSKRPSGIPERFSGSSSGTMATLTISGAQVEDEADYYCYSTDSSGNHRGFGGGTKLTVL
B3: anti-EPOR antibody clonotype499 (antibody, V domains shown)
VH: EVHLVESGGGLVKPGGSLRLSCAASGFTFSNAWMSWVRQAPGKGLEWVGRIKRKTDGGTTDFASPVKGRFTISRDDSNNTLYLQMNSLKTEDTAVYYCTTASTVTTGDYWGQGTLVTVSS
VL: SYELTQPPSVSVSPGQTARITCSADALPKQYAYWYQQKPGQAPVLVIYKDSERPSGIPERFSGSSSGTTVTLTISGVQAEDEADYYCQSADSSGTYPVFGGGTKLTVL
B4: anti-EPOR antibody clonotype458 (antibody, V domains shown)
VH: QVQLVESGGGLVKPGGSLRLSCAASGFTFSDYYMSWIRQAPGKGLEWVSYISSSGSTIYYADSVKGRFTISRDNAKNSLYLQMNSLRAEDTAVYYCARDGQLWSFDYWGQGTLVTVSS
VL: QSVLTQPPSVSGAPGQRVTISCTGSSSNIGAGYDVHWYQQLPGTAPKLLIYGNSNRPSGVPDRFSGSKSGTSASLAITGLQAEDEADYYCQSYDSSLSDVVFGGGTKLTVL
B5: anti-EPOR antibody clonotype457 (antibody, V domains shown)
VH: EVQLVESGGGLVQPGRSLRLSCAASGFTFDDYAMHWVRQAPGKGLEWVSGISWNSGSIGYADSVKGRFTISRDNAKNSLYLQMNSLRAEDTALYYCAKDSGSYYFDYWGQGTLVTVSS
VL: QSALTQPPSASGSPGQSVTISCTGTSSDVGGYNYVSWYQQHPGKAPKLMIYEVSKRPSGVPDRFSGSKSGNTASLTVSGLQAEDEADYYCSSYAGSNNFVVFGGGTKLTVL
B6: anti-EPOR antibody clonotype509 (antibody, V domains shown)
VH: EVQLVESGGGLVQPGGSLRLSCAASGFTFSSYSMNWVRQAPGKGLEWVSYISSSSNTIYYADSVKGRFTISRDNAKNSLYLQMSSLRDEDTAVYYCARTSSWSYDAFDIWGQGTMVTVSS
VL: QSALTQPPSASGSPGQSVTISCTGTSSDVGGYNYVSWYQQHPGKAPKLMIYEVSKRPSGVPDRFSGSKSGNTASLTVSGLQAEDEADYYCSSYAGSNNFVVFGGGTKLTVL
B7: anti-EPOR antibody clonotype480 (antibody, V domains shown)
VH: EVQLVQSGAEVKKPGESLKISCKGSGYSFTSYWIGWVRQMPGKGLEWMGIIYPGDSDTRYSPSFQGQVTISADKSISTAYLQWSSLKASDTAMYYCARFLGSSYYFDYWGQGTLVTVSS
VL: QSALTQPPSASGSPGQSVTISCTGTSSDVGGYNYVSWYQQHPGKAPKLMIYEVSKRPSGVPDRFSGSKSGNTASLTVSGLQAEDEADYYCSSYAGSNNFEVFGGGTKLTVL
B8: anti-EPOR antibody clonotype466 (antibody, V domains shown)
VH: EVQLVESGGGLVQPGGSLRLSCAASGFTFSIYWMSWVRQAPGKGLEWVATIKEDGSEKYYVDSVKGRFTISRDNAKNSLFLQMNSLRADDTAVYYCARDSNFLYYFDYWGQGDLVTVSS
VL: SSELTQDPALSVALGQTVRITCQGDSLRSFYASWYQQKPGQAPVLVIYGKSNRPSGIPDRFSGSGSGNTASLTITGAQAEDEADFYCNSRDTSGNYLVFGGGTKLTVL
B9: anti-EPOR antibody clonotype468 (antibody, V domains shown)
VH: QVQLVQSGAEVKKPGASVKVSCKASGYTFTSYGISWVRQAPGQGLEWMGWISAYNGNTNYAQKLQGRVTMTTDTSTNTAYMELRSLRSDDTAVYYCARQITGTRGFDYWGQGTLVTVSS
VL: SSELTQDPAVSVALGQTVRITCQGDSLRSYYASWYQQKPGQAPVLVIYGKNNRPSGIPDRFSGSSSGNTASLTITGAQAEDEADYYCNSRDSSGNHWVFGGGTKLTVL
B10: anti-EPOR antibody clonotype470 (antibody, V domains shown)
VH: QVQLVQSGSEVKKPGASVKVSCKASGYTFTSYYMHWVRQAPGQGLEWMGIINPSGGSTSYAQKFQGRVTMTRDTSTSTVYMELSSLRSEDTAVYYCARGIPTTVTPDYWGQGTLVTVSS
VL: SSELTQDPAVSVALGQTVRITCQGDSLRSYYASWYQQKPGQAPVLVIYGKNNRPSGIPDRFSGSSSGNTASLTITGAQAEDEADYYCNSRDSSGNHLVFGGGTKLTVL
B11: anti-EPOR antibody clonotype455 (antibody, V domains shown)
VH: EVQLVESGGGLVQPGGSLRLSCAASGFTFSSYWMHWVRQAPGKGLVWVSRINSDGSSTSYADSVKGRFTISRDNAKNTLYLQMNSLRAEDTAVYYCARDEQLVPFDIWGQGTMVTVSS
VL: QSALTQPASVSGSPGQSITISCTGTSSDVGGYNYVSWYQQHPGKAPKLMIYDVSKRPSGVSNRFSGSKSGNTASLTISGLQAEDEADYYCCSYAGSSTLVFGGGTKLTVL
B12: anti-EPOR antibody clonotype506 (antibody, V domains shown)
VH: QVQLVESGGGVVRPGGSLRLSCAASGFTFDDYGMSWVRQAPGKGLEWVSGINWNGGSTGYADSVKGRFTISRDNAKNSLYLQMNSLRAEDTALYYCARENYDFWSGFDPWGQGTLVTVSS
VL: QSALTQPASVSGSPGQSITISCTGTSSDVGGYNYVSWYQQHPGKAPKLMIYEVSNRPSGVSNRFSGSKSGNTASLTISGLQAEDEADYYCSSYTSSSTVVFGGGTKLTVL
B13: anti-EPOR antibody clonotype478 (antibody, V domains shown)
VH: QVQLVQSGAEVKKPGASVKVSCKASGYTFTSYYMHWVRQAPGQGLEWMGIINPSGGSTSYAQKFQGRVTMTRDTSTSTVYMELSSLRSEDTAVYYCARRTGTTHYFDYWGQGTLVTVSS
VL: QSALTQPASVSGSPGQSITISCTGTSSDVGGYNYVSWYQQHPGKAPKLMIYDVSKRPSGVSNRFSGSKSGNTASLTISGLQAEDEADYYCCSYAGSSTLVFGGGTKLTVL
B14: anti-EPOR antibody clonotype507 (antibody, V domains shown)
VH: QVHLQQSGPGLVKPSQTLSLTCAISGDSVSSNSAAWNWIRQSPSRGLEWLGRTYYRSKWYNGYAESVKSRITINPDTSKNQFSLQLNSVTPEDTAVYYCAREDRGFDYWGQGTLVTVSS
VL: QSALTQPASVSGSPGQSITISCTGTSSDVGGYNYVSWYQQHPGKAPKLMIYDVSKRPSGVSNRFSGSKSGNTASLTISGLQAEDEADYYCCSYAGSSNVVFGGGTNLTVL
B15: anti-EPOR antibody clonotype512 (antibody, V domains shown)
VH: EVQLVESGGGLVQPGGSLRLSCAASGFNFSSYNMNWVRQTPGKGLEWVSYISNTGNTIYYVDSVKGRFTISRDNAKNSLYLQLNSLRDEDTAVYFCARDGPQVGATDFDYWGQGTLVTVSS
VL: SYELTQPSSVSVSPGQTAKITCSGDVLAKKYARWFQQKPGQVPVLVIYKDSERPSGIPERFSGSSSGATVTLTISGAQVEDEADYYCYSAADNKVFGGGTKLTVL
B16: anti-EPOR antibody clonotype508 (antibody, V domains shown)
VH: EVQLVESGGGLVQPGRSLRLSCAASGFTFDDYAMHWVRQAPGKGLEWVSGISWNSGSIGYADSVKGRFTISRDNAKNSLYLQMNSLRAEDTALYYCAKRAVVTDYYMDVWGKGTTVTVSS
VL: QSALTQPASVSGSPGQSITISCTGTSSDVGGYNYVSWYQQHPGKAPKLMIYDVSKRPSGVSNRFSGSKSGNTASLTISGLQAEDEADYYCCSYAGSSTFWVFGGGTKLTVL
B17: anti-EPOR antibody clonotype498 (antibody, V domains shown)
VH: QVQLVQSGAEVKKPGSSVKVPCKASGDTFSNFAINWVRQAPGQGLEWMGGIIPIFATANYAQNFQGRVTITADESTSAAYMEVSSLRFEDTAVYYCARTPLGIGRSFDLWGQGTMVTVSS
VL: SYVLTQPPSVSVAPGKTARITCGGNNIGSKSVHWYQQTPGQAPVLVIYYDSDRPSGIPDRFSGSNSGNTATLTISRVEAGDEADYYCQVWDSNSDHWVFGGGTKLTVL
B18: anti-EPOR antibody clonotype490 (antibody, V domains shown)
VH: QITLKESGPTLVKPTQTLTLTCTFSGFSLSTSGVGVGWIRQPPGKALEWLALIYWSDDKRYSPSLKNRLTITKDTSKNQVVLTMTNMDPLATATYYCAQTGYNSWSFDYWGQGTLVTVSS
VL: SYELTQPPSVSVSPGQTARITCSADALPNQYAYWYQQKPGQAPVLVIYKDSERPSGIPERFSGSSSGTTVTLTISGVQAEDEADYYCQSADSSGTWVFGGGTKLTVL
B19: anti-EPOR antibody clonotype460 (antibody, V domains shown)
VH: EVQLVESGGGLVQPGGSLRLSCAASGFTFSSYWMSWVRQAPGKGLEWVANIKQDGSEKYYVDSVKGRFTISRDNAKNSLYLQMNSLRAEDTAVYYCARDSNWGVFDYWGQGTLVTVSS
VL: QAVLTQPASLSASPGASASLTCTLRSGINVGTYRIYWYQQKPGSPPQYLLRYKSDSDKQQGSGVPSRFSGSKDASANAGILLISGLQSEDEADYYCMIWHSSAWVFGGGTKLTVL
B20: anti-EPOR antibody clonotype461 (antibody, V domains shown)
VH: EVQLVESGGGLVQPGGSLRLSCAASGFTFSSYWMSWVRQAPGKGLEWVANIKQDGSEKYYVDSVKGRFTISRDNAKNSLYLQMNSLRAEDTAVYYCARDRLTGDLDYWGQGTLVTVSS
VL: QAVLTQPASLSASPGASASLTCTLRSGINVGTYRIYWYQQKPGSPPQYLLRYKSDSDKQQGSGVPSRFSGSKDASANAGILLISGLQSEDEADYYCMIWHSSAWVFGGGTKLTVL
B21: anti-EPOR antibody clonotype481 (antibody, V domains shown)
VH: EVQLVESGGGLVQPGGSLRLSCAASGFTFSSYSMNWVRQAPGKGLEWVSYISSSSSTIYYADSVKGRFTISRDNAKNSLYLQMNSLRDEDTAVYYCARGGAAAGAFDIWGQGTMVTVSS
VL: QAVLTQPASLSASPGASASLTCTLRSGINVGTYRIYWYQQKPGSPPQYLLRYKSDSDKQQGSGVPSRFSGSKDASANAGILLISGLQSEDEADYYCMIWHSSAWVFGGGTKLTVL

In this assay the target is recombinant hEPOR-Fc (SinoBiological, Cat #10707-H02H) (human) (UniProt P19235). The assay can be described thus: B cells sorted by flow cytometry on labeled hEPOR-Fc, single cell sequencing. Background: Flow cytometry measures light scatter and fluorescence of single cells or particles in a stream.
As to B1, the binding entry is recorded as “binds”.
Regarding B2, the binding entry is recorded as “binds”.
The same measure for B3: “binds”; for B4: “binds”.
Turning to B5, the binding result is reported as “binds”.
The same measure for B6: “binds”.
With B7 the entry was “binds”; with B8, “binds”; with B9, “binds”.
With B10 the entry was “binds”; with B11, “binds”; with B12, “binds”.
On to B13, for which the binding result was “binds”.
The same measure for B14: “binds”; for B15: “binds”; for B16: “binds”.
As to B17, the binding entry is recorded as “binds”.
The same measure for B18: “binds”.
The same measure for B19: “binds”; for B20: “binds”; for B21: “binds”.
